{"sequences": {"note": "Chains of the proteins cited; added tags and fusions are not shown.", "UniProt Q04695": "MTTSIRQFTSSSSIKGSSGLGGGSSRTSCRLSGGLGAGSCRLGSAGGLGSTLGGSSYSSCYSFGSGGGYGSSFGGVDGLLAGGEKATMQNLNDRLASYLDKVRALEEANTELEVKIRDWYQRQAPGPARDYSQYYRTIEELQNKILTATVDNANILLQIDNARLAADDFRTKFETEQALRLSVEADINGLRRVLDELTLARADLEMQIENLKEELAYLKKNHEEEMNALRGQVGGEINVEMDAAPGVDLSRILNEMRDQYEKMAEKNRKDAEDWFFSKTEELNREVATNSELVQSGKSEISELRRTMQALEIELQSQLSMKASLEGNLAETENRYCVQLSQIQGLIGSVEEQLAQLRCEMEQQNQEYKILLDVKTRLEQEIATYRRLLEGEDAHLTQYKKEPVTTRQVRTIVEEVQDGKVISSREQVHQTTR"}, "source": "paper PMC11361748", "molecular_target": "keratin 17 (human (endogenous in A431)) (UniProt Q04695)", "test": "proximity ligation; Duolink PLA on fixed, permeabilised parental A431 keratinocytes treated with acetone vehicle or TPA for 30 min; PLA dots per cell; KRT17 null cells compared", "note": "These are yes or no findings as the source states them, for the method shown. In cells and extracts the contact can be indirect. Some binding calls cover weakened binding; strength is not graded here.", "data": [{"substance": "protein kinase C alpha (from UniProt P17252 1-672) (enzyme)", "values": [{"measurement": "binding", "value": "binds"}]}]}
